Laboratory results as given in article PMC6018480.

T1: HrDEF (Habenaria radiata) (UniProt B6ZDS4)
T1 sequence: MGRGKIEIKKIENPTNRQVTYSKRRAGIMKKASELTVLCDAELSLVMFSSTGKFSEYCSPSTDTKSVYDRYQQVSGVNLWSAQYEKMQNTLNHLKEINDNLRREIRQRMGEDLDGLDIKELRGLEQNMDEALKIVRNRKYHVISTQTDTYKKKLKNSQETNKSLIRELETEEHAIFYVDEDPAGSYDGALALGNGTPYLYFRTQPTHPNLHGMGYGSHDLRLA


Columns and labels:
[1] = target: T1, HrDEF (Habenaria radiata); assay: two-hybrid; GAL4 system; baits as GAL4 DNA-BD fusions in pDEST32 in yeast PJ69-4α, preys as GAL4 AD fusions in pDEST22 in PJ69-4A; activation of ADE on SD/-Leu-Trp-Ade and lacZ by X-gal staining; in triplicate, growth scored after 7 days at 20°C
[2] = target: HrSEP-1 (Habenaria radiata); assay: as above

| binding [1] | binding [2] | Molecule |
| --- | --- | --- |
| binds |  | HrSEP-1 (Habenaria radiata) |
|  | binds | HrDEF (protein, UniProt B6ZDS4 1-223) MGRGKIEIKKIENPTNRQVTYSKRRAGIMKKASELTVLCDAELSLVMFSSTGKFSEYCSPSTDTKSVYDRYQQVSGVNLWSAQYEKMQNTLNHLKEINDNLRREIRQRMGEDLDGLDIKELRGLEQNMDEALKIVRNRKYHVISTQTDTYKKKLKNSQETNKSLIRELETEEHAIFYVDEDPAGSYDGALALGNGTPYLYFRTQPTHPNLHGMGYGSHDLRLA |

These are yes or no findings as the source states them, for the method shown. Binding calls can cover weak binding; strength is not graded here.
